# Assay results from the supplement of paper PMC4604168 (melanoma cell lines).
# The list shows a part of the results. Many values rest on one well or one pass, so single values are uncertain.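 Imaging used 1,536-well plates; nuclei positive for cleaved PARP by antibody were divided by total DNA-stained nuclei to yield the apoptosis fraction. Doses for screening kept most cells viable, and cell lines differ markedly in resting and induced cleaved-PARP levels.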
# Experiments:
# Test in all cases: cleaved PARP positive nuclei fraction relative to DMSO control; melanoma cells; higher = more apoptosis
# Conditions in all cases: library dose: low library concentration; 72 h
# [1] = tested on: WM115
# [2] = tested on: WM1716
# [3] = tested on: WM1745
# [4] = tested on: WM3526
# [5] = tested on: WM3619
# [6] = tested on: WM451Lu
Structure (SMILES),cleaved PARP positive nuclei fraction [1] [%],cleaved PARP positive nuclei fraction [2] [%],cleaved PARP positive nuclei fraction [3] [%],cleaved PARP positive nuclei fraction [4] [%],cleaved PARP positive nuclei fraction [5] [%],cleaved PARP positive nuclei fraction [6] [%]
"CCCCCCCCCCCCCCCCCCOP(=O)([O-])OC1CC[N+](C)(C)CC1 [Perifosine] + Cc1cc([N+](=O)[O-])ccc1NS(=O)(=O)c1cc(Cl)ccc1Cl [FH535] (first compound 0.4 µM, partner dose 1 µM)",99.3,209,105,74.6,109,99.1
"N#CC[C@H](C1CCCC1)n1cc(-c2ncnc3[nH]ccc23)cn1 [ruxolitinib] + O=C1NC(=O)/C(=C/c2ccc(-c3ccc(F)cc3O)o2)S1 [AS252424] (first compound 1 µM, partner dose 1 µM)",239,461,90.1,64.3,93.8,62.6
"O=c1[nH]nc(Sc2ncc([N+](=O)[O-])s2)n1-c1ccc2c(c1)OCCO2 + Oc1nc(-c2ccc(C(F)(F)F)cc2)nc2c1CSCC2 [XAV939] (first compound 0.2 µM, partner dose 2 µM)",161,107,92.4,73.4,97.2,110
"O=C(Nc1cc(C(F)(F)F)cc(C(F)(F)F)c1)c1cc(Cl)ccc1O + CC(=O)O[C@@]12CO[C@@H]1C[C@H](O)[C@@]1(C)C(=O)[C@H](O)C3=C(C)[C@@H](OC(=O)[C@H](O)[C@@H](NC(=O)OC(C)(C)C)c4ccccc4)C[C@@](O)([C@@H](OC(=O)c4ccccc4)[C@H]21)C3(C)C [Docetaxel] (first compound 0.016 µM, partner dose 0.0001 µM)",213,157,128,86.7,219,146
"O=C(/C=C/c1cccnc1)NCCCCC1CCN(C(=O)c2ccccc2)CC1 + CCN(CC)CCNC(=O)c1c(C)[nH]c(/C=C2\C(=O)Nc3ccc(F)cc32)c1C [sunitinib] (first compound 0.01 µM, partner dose 0.4 µM)",126,30.4,99,71.1,117,256
"Cc1ccc(Nc2nccc(N(C)c3ccc4c(C)n(C)nc4c3)n2)cc1S(N)(=O)=O [Pazopanib] + Nc1cccc2c1CN(C1CCC(=O)NC1=O)C2=O [lenalidomide] (first compound 0.4 µM, partner dose 1 µM)",86.1,84.4,221,22.9,81.5,42.3
"O=C(/C=C/c1cccnc1)NCCCCC1CCN(C(=O)c2ccccc2)CC1 + O=C(O)c1ccc(-c2c[nH]c3ncc(-c4ccccc4)cc23)cc1C1CCCC1 [GSK650394] (first compound 0.01 µM, partner dose 0.16 µM)",413,168,102,64.5,115,116
"Cc1ccc(Nc2nccc(N(C)c3ccc4c(C)n(C)nc4c3)n2)cc1S(N)(=O)=O [Pazopanib] + COc1cc2ncnc(Nc3ccc(Oc4ccccc4)cc3)c2cc1OC [SrcI1] (first compound 0.4 µM, partner dose 2 µM)",51.2,48.1,91.7,85.3,96.7,104
"O=C(Nc1cc(C(F)(F)F)cc(C(F)(F)F)c1)c1cc(Cl)ccc1O + C=C(c1ccc(C(=O)O)cc1)c1cc2c(cc1C)C(C)(C)CCC2(C)C [Bexarotene] (first compound 0.016 µM, partner dose 2 µM)",82.5,71.2,108,240,111,107
"O=C(Nc1cc(C(F)(F)F)cc(C(F)(F)F)c1)c1cc(Cl)ccc1O + O=C(/C=C/c1cccnc1)NCCCCC1CCN(C(=O)c2ccccc2)CC1 [FK866] (first compound 0.016 µM, partner dose 0.01 µM)",29.2,95.9,105,194,103,120
"O=C(Nc1cc(C(F)(F)F)cc(C(F)(F)F)c1)c1cc(Cl)ccc1O + O=C(O)C(=O)Nc1sc2c(c1C(=O)O)CCNC2 [TCS401] (first compound 0.016 µM, partner dose 1.66667 µM)",63.4,87.9,95.3,141,70.8,37.3
"Cc1cn(-c2cc(NC(=O)c3ccc(C)c(Nc4nccc(-c5cccnc5)n4)c3)cc(C(F)(F)F)c2)cn1 [nilotinib] + Oc1cc(-c2nc(-c3ccccc3)[nH]c2-c2ccncc2)ccc1Cl [L779450] (first compound 0.2 µM, partner dose 0.2 µM)",130,95.7,92.6,84.8,82.1,130
"COc1cc([C@@H]2c3cc4c(cc3[C@@H](O[C@@H]3O[C@@H]5CO[C@@H](C)O[C@H]5[C@H](O)[C@H]3O)[C@H]3COC(=O)[C@H]23)OCO4)cc(OC)c1O [etoposide] + Cn1c(=O)n(-c2ccc(C(C)(C)C#N)cc2)c2c3cc(-c4cnc5ccccc5c4)ccc3ncc21 [NVP-BEZ235] (first compound 0.02 µM, partner dose 0.004 µM)",106,16.6,102,43.6,115,40.5
"Cc1ccc(Nc2nccc(N(C)c3ccc4c(C)n(C)nc4c3)n2)cc1S(N)(=O)=O [Pazopanib] + CC(C)(C)c1cnc(CSc2cnc(NC(=O)C3CCNCC3)s2)o1 [SNS-032] (first compound 0.4 µM, partner dose 0.01 µM)",108,84.7,94.6,1550,95.5,159
"COc1cc([C@@H]2c3cc4c(cc3[C@@H](O[C@@H]3O[C@@H]5CO[C@@H](C)O[C@H]5[C@H](O)[C@H]3O)[C@H]3COC(=O)[C@H]23)OCO4)cc(OC)c1O [etoposide] + O=C(O)c1ccc(-c2c[nH]c3ncc(-c4ccccc4)cc23)cc1C1CCCC1 [GSK650394] (first compound 0.02 µM, partner dose 0.16 µM)",101,43.5,203,30.5,97.7,70.5
"Cc1cn(-c2cc(NC(=O)c3ccc(C)c(Nc4nccc(-c5cccnc5)n4)c3)cc(C(F)(F)F)c2)cn1 [nilotinib] + Nc1nc(F)nc2c1ncn2[C@@H]1O[C@H](CO)[C@@H](O)[C@@H]1O [fludarabine] (first compound 0.2 µM, partner dose 0.2 µM)",259,71.3,89.4,632,111,159
"O=C(/C=C/c1cccnc1)NCCCCC1CCN(C(=O)c2ccccc2)CC1 + CCc1ccc(CCOc2ccc(CC3SC(=O)NC3=O)cc2)nc1 [pioglitazone] (first compound 0.01 µM, partner dose 2 µM)",154,104,97.1,74.2,100,158
"COc1cc([C@@H]2c3cc4c(cc3[C@@H](O[C@@H]3O[C@@H]5CO[C@@H](C)O[C@H]5[C@H](O)[C@H]3O)[C@H]3COC(=O)[C@H]23)OCO4)cc(OC)c1O [etoposide] + CCCS(=O)(=O)Nc1ccc(F)c(C(=O)c2c[nH]c3ncc(Cl)cc23)c1F [PLX4720] (first compound 0.02 µM, partner dose 0.08 µM)",64.4,31.1,98.4,44.3,101,79.7
"CCCCCCCCCCCCCCCCCCOP(=O)([O-])OC1CC[N+](C)(C)CC1 [Perifosine] + CO[C@@H]1[C@H](N(C)C(=O)c2ccccc2)C[C@H]2O[C@]1(C)n1c3ccccc3c3c4c(c5c6ccccc6n2c5c31)C(=O)NC4 [Midostaurin] (first compound 0.4 µM, partner dose 0.08 µM)",139,1070,91.9,125,82.4,73.3
"O=C(Nc1cc(C(F)(F)F)cc(C(F)(F)F)c1)c1cc(Cl)ccc1O + C[C@@H](Oc1cc(-c2cnn(C3CCNCC3)c2)cnc1N)c1c(Cl)ccc(F)c1Cl [Crizotinib] (first compound 0.016 µM, partner dose 0.2 µM)",89,44.9,86.4,79.4,87.6,51.6
"CC[C@]1(O)C[C@H]2CN(CCc3c([nH]c4ccccc34)[C@@](C(=O)OC)(c3cc4c(cc3OC)N(C=O)[C@H]3[C@@](O)(C(=O)OC)[C@H](OC(C)=O)[C@]5(CC)C=CCN6CC[C@]43[C@@H]65)C2)C1 [vincristine] + CCc1ccc(CCOc2ccc(CC3SC(=O)NC3=O)cc2)nc1 [pioglitazone] (first compound 0.0001 µM, partner dose 2 µM)",1820,290,114,108,159,74.5
"Cc1cn(-c2cc(NC(=O)c3ccc(C)c(Nc4nccc(-c5cccnc5)n4)c3)cc(C(F)(F)F)c2)cn1 [nilotinib] + CC(C)C[C@H](NC(=O)[C@H](Cc1ccccc1)NC(=O)c1cnccn1)B(O)O [Bortezomib] (first compound 0.2 µM, partner dose 0.001 µM)",15.3,81.6,108,64,112,357
"COc1cc([C@@H]2c3cc4c(cc3[C@@H](O[C@@H]3O[C@@H]5CO[C@@H](C)O[C@H]5[C@H](O)[C@H]3O)[C@H]3COC(=O)[C@H]23)OCO4)cc(OC)c1O [etoposide] + Cc1cc(Nc2cc(N3CCN(C)CC3)nc(/C=C/c3ccccc3)n2)n[nH]1 [ENMD2076] (first compound 0.02 µM, partner dose 0.04 µM)",52.2,38.6,82.6,106,104,98.6

# Exported as tab-separated lines: part of the list above.
Structure (SMILES)	cleaved PARP positive nuclei fraction [1] [%]	cleaved PARP positive nuclei fraction [2] [%]	cleaved PARP positive nuclei fraction [3] [%]	cleaved PARP positive nuclei fraction [4] [%]	cleaved PARP positive nuclei fraction [5] [%]	cleaved PARP positive nuclei fraction [6] [%]
Cc1ccc(Nc2nccc(N(C)c3ccc4c(C)n(C)nc4c3)n2)cc1S(N)(=O)=O [Pazopanib] + Nc1cccc2c1CN(C1CCC(=O)NC1=O)C2=O [lenalidomide] (first compound 0.4 µM, partner dose 1 µM)	86.1	84.4	221	22.9	81.5	42.3
O=C(/C=C/c1cccnc1)NCCCCC1CCN(C(=O)c2ccccc2)CC1 + O=C(O)c1ccc(-c2c[nH]c3ncc(-c4ccccc4)cc23)cc1C1CCCC1 [GSK650394] (first compound 0.01 µM, partner dose 0.16 µM)	413	168	102	64.5	115	116
Cc1ccc(Nc2nccc(N(C)c3ccc4c(C)n(C)nc4c3)n2)cc1S(N)(=O)=O [Pazopanib] + COc1cc2ncnc(Nc3ccc(Oc4ccccc4)cc3)c2cc1OC [SrcI1] (first compound 0.4 µM, partner dose 2 µM)	51.2	48.1	91.7	85.3	96.7	104
O=C(Nc1cc(C(F)(F)F)cc(C(F)(F)F)c1)c1cc(Cl)ccc1O + C=C(c1ccc(C(=O)O)cc1)c1cc2c(cc1C)C(C)(C)CCC2(C)C [Bexarotene] (first compound 0.016 µM, partner dose 2 µM)	82.5	71.2	108	240	111	107
O=C(Nc1cc(C(F)(F)F)cc(C(F)(F)F)c1)c1cc(Cl)ccc1O + O=C(/C=C/c1cccnc1)NCCCCC1CCN(C(=O)c2ccccc2)CC1 [FK866] (first compound 0.016 µM, partner dose 0.01 µM)	29.2	95.9	105	194	103	120
